Results reported in article PMC6017538.

Chains of the proteins cited; added tags and fusions are not shown.
UniProt A0QS98: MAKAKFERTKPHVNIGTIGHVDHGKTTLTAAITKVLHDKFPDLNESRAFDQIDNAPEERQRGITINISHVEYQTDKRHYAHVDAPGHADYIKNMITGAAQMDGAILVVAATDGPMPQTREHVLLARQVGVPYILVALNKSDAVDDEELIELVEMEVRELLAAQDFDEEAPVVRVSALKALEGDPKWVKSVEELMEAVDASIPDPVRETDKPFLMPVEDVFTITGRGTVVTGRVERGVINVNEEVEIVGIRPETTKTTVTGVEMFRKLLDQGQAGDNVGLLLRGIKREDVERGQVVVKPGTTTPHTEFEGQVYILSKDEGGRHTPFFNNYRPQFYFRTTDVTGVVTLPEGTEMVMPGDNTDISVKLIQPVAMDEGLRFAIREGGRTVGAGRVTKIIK

Target: T1, carboxypeptidase coded by Rv3627c (UniProt O06380)
T1 sequence: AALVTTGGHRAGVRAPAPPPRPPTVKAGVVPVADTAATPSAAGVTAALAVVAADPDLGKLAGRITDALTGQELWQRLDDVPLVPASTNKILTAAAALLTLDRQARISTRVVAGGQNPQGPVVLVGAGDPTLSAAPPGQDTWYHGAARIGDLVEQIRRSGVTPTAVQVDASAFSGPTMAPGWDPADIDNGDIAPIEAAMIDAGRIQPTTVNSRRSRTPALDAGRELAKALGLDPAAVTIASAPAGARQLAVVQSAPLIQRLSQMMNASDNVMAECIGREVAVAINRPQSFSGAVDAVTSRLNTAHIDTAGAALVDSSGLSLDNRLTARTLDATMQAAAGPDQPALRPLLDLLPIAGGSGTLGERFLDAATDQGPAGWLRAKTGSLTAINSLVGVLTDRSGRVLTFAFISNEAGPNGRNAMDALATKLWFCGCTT
Assay: affinity purification with mass spectrometry

Substance: elongation factor Tu (MSMEG_1401, tuf) (from UniProt A0QS98 1-396)
- binding: binds

These are yes or no findings as the source states them, for the method shown. In cells and extracts the contact can be indirect. A yes stands for co-enrichment or nearness to the bait. Other partners may have been found.
